No constants are given. Whether binding was seen depends on the method and setting. In cells and extracts the contact can be indirect. Some binding calls cover weakened binding; strength is not graded here.
Tests used:
[1] = biological target: brahma-related gene 1 protein (BRG1) (human (endogenous in primary human aortic VSMCs)) (UniProt P51532); assay: co-IP; sequential co-IP: 200 µg nuclear extract of VSMCs with RNAse inhibitor, treated with turbo DNAse I; first anti-BRG1 on A/G agarose beads, then biotinylated anti-HDAC9 on magnetic streptavidin beads; western blot
[2] = biological target: brahma-related gene 1 protein (BRG1) (human (endogenous in primary human aortic VSMCs)) (UniProt P51532); assay: co-IP; 40 µg nuclear extract of human VSMCs (control, TGFR2 G357W or ACTA2 R179H expressing); anti-BRG1 antibody (5 µg) overnight at 4 C, Pierce Co-IP kit, A/G magnetic beads; western blot for HDAC9

Amino acid sequences for entries named in this document (tags omitted).
UniProt P51532: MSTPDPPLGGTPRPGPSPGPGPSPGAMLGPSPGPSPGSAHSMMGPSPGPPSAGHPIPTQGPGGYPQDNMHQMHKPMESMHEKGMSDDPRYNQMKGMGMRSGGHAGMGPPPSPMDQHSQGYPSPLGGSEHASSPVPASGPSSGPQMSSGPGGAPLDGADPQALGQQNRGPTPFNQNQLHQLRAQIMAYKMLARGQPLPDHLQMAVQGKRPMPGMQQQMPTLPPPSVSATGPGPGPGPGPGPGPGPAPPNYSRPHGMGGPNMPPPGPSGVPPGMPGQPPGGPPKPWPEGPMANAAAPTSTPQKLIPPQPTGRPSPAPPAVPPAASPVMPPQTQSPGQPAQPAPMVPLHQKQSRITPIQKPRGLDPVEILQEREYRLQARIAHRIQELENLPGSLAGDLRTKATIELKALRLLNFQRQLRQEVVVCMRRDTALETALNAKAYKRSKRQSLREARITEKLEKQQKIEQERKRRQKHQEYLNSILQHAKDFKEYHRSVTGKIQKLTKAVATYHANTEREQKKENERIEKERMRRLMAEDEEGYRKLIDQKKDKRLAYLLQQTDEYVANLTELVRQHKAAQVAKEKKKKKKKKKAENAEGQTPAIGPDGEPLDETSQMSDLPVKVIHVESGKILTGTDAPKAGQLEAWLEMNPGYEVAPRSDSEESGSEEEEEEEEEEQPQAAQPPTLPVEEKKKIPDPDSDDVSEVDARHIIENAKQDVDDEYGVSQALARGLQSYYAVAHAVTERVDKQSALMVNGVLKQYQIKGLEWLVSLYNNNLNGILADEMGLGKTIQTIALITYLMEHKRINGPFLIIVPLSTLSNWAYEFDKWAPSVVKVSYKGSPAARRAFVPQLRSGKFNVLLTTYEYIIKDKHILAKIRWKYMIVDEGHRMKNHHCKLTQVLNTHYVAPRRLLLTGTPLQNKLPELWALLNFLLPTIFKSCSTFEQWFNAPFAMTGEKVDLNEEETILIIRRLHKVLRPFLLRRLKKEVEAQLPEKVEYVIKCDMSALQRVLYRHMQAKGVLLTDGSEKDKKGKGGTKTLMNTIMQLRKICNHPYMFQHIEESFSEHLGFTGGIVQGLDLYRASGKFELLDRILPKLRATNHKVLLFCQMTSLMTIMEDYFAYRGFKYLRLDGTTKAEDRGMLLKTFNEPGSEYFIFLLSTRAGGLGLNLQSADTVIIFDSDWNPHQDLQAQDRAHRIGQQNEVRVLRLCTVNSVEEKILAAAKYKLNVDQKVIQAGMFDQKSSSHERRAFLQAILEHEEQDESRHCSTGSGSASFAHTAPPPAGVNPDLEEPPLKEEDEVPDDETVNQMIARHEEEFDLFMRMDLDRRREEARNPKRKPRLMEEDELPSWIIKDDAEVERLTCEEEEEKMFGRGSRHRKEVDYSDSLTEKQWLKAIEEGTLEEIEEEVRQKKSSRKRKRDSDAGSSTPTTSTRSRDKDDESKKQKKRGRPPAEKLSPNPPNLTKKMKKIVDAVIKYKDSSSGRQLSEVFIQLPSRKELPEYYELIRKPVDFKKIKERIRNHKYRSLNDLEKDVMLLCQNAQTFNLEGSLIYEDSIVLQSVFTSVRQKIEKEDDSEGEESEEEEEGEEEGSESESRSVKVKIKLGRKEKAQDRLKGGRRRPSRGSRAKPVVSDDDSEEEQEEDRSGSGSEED
UniProt Q9UKV0: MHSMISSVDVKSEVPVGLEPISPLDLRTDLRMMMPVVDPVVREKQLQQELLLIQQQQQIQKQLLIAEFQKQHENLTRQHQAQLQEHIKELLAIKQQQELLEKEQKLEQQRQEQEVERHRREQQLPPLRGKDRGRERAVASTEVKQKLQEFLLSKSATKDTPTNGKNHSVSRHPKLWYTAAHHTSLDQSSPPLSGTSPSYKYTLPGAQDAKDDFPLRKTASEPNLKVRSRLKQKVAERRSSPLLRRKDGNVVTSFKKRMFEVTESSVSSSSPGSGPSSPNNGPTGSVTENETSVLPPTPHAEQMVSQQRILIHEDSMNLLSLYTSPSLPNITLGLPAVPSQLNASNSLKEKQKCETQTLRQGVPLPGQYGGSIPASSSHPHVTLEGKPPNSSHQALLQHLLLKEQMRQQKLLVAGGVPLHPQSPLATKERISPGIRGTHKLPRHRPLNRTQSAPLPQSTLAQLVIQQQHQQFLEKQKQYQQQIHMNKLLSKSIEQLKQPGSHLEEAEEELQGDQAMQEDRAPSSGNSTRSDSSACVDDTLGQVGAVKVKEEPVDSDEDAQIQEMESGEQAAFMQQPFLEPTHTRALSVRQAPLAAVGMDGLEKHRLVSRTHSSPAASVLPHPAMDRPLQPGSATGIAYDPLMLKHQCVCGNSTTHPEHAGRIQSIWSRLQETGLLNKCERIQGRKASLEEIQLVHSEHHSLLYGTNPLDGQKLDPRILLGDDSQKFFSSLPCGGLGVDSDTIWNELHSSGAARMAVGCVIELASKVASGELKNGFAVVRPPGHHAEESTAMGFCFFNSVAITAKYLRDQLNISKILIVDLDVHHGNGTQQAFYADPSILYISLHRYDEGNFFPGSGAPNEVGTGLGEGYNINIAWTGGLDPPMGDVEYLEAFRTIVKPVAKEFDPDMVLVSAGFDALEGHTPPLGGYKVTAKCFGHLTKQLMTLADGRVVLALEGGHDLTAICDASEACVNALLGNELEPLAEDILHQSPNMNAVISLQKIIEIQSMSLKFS

“histone deacetylase HDAC9 (from UniProt Q9UKV0 1-1011)” was tested, and the binding [1] was “binds” and the binding [2] was “binds”.

Reference: paper PMC5843596
